# Laboratory results reported in patent publication US4624944A, “Human seminal alpha-inhibins” (The Regents of The University of California, priority 1985, dated 1986).
# Where no end group is shown, it is not given here.
# Legend:
# [1] = tested on: rabbit antiserum to alpha-IB-31; experiment: RIA of alpha-inhibins using rabbit antiserum to ILP (displacement of labelled [Tyr4]-alpha-IB-31); format: binding
# Description: Radioimmunoassay was performed with rabbit antiserum to alpha-IB-31. Amino acid analyses were performed in an automatic amino acid analyzer (Model 119C, Beckman) as described by Spackman, et al. (1958). The NH2 -terminal residue was determined by the dansyl-Edman procedure (Gray, 1967). For COOH-terminal residue analysis, carboxypeptidase Y digests were carried out in 1M pyridine acetate buffer (pH 5.5) for 4 hr at 37° C. with an enzyme-to-substrate ratio of 1:50. Trypsin digestions were performed with an enzyme-to-substrate ratio of 1:50 in 0.05M Tris/0.01 M Mg^2+, pH 8.5, at 37° C. for 4 hr.
# Alpha-IB-52 and alpha-IB-92 cross-react to an antiserum raised against alpha-IB-31. They displace labelled [Tyr^4 ]-alpha-IB-31 with 60% of the potency of alpha-IB-31.
# [2] = tested on: LHRH-induced FSH secretion by mouse pituitary; experiment: FSH-suppressing (inhibin) activity, in vitro mouse pituitary system; format: cell-based; details: dose-response slope
# Description: FIG. 6 is a graphical illustration of the effect of alpha-IB-31, alpha-IB-52, and alpha-IB-92 on LHRH-induced FSH secretion by mouse pituitary. Means ±SEM (n=5) are shown. On the graph solid circles represent alpha-IB-31; open circles represent alpha-IB-52; solid triangles represent alpha-IB-92.
# Disc electrophoresis in polyacrylamide slab gels was performed as described by Reisfield, et al. (1962). The gels were stained with Coomassie Blue (R250). NaDodSO4 gel electrophoresis was carried out as described by Laemmli (1970). The inhibin activity was assayed by the in vitro mouse pituitary system (Yamashiro, et al., 1984; Ramasharma, et al., 1981).
# FIG. 6 presents bioassay data for alpha-IB-31, alpha-IB-52 and alpha-IB-92 in suppressing the lutropin-releasing hormone (LHRH)-induced FSH secretion by using mouse pituitaries in vitro. […] The addition of 40 amino acids at the NH2 -terminus of alpha-IB-52 greatly enhance the inhibin activity.
Sequence,Slope (RIA) [1],Slope (FSH-suppressing activity) [2]
"HNKQEGRDHDKSKGHFHRVVIHHKGGKAHRG [alpha-IB-31, alpha-inhibin-31, reference compound]",1.17,0.548
"HNKQEGRDHDKSKGHFHRVVIHHKGGKAHRGTQNPSQDQGNSPSGKGISSQY [alpha-IB-52, alpha-inhibin-52]",0.99,0.414
